Source: patent US7754689B2, “Finger-1 peptide analogs of the TGF-β superfamily” (Wyeth LLC, priority 2006, dated 2010)
No constants are given. Whether binding was seen depends on the method and setting. Some entries that bind do so weakly or less than the wild type.

What was measured:
BMP-3 [1] = target: T1, BMP-3 (UniProt P12645); assay: affinity chromatography, immobilised BMP-12, load in 1.2 M NaCl
T1 sequence (looked up): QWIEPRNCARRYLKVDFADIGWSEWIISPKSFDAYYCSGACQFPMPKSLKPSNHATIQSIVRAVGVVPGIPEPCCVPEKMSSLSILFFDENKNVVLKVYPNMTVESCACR

BMP-12 [2] = target: T2, BMP-12 (UniProt Q7Z4P5 322-450, limits assumed); assay: affinity chromatography, immobilised BMP-12
T2 construct: also called BMP12/GDF7
T2 sequence (looked up): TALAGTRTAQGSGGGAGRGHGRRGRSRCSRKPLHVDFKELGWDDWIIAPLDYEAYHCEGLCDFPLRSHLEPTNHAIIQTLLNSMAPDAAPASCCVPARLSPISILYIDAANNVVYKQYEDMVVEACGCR

BMP-12 [3] = target: T2, BMP-12; assay: HPLC column of BMP affinity resin, loaded with BMP-12
BMP-3 [4] = target: T1, BMP-3; assay: HPLC column of BMP affinity resin, loaded with BMP-3
BMP-12 [5] = target: T2, BMP-12; assay: affinity chromatography, immobilised BMP-2

Measured: binding

B1: BMP-12 (ligand, UniProt Q7Z4P5 322-450, looked up)
chain: T2 sequence (looked up)
not listed: BMP-12 [5]
binds: all other assays above

B2: BMP-2 (ligand, UniProt P12643 283-396, looked up)
chain: QAKHKQRKRLKSSCKRHPLYVDFSDVGWNDWIVAPPGYHAFYCHGECPFPLADHLNSTNHAIVQTLVNSVNSKIPKACCVPTELSAISMLYLDENEKVVLKNYQDMVVEGCGCR
binds: BMP-12 [5] | BMP-12 [3]
